No constants are given. Whether binding was seen depends on the method and setting. Binding seen in cells or lysates may run through a third protein. Some entries that bind do so weakly or less than the wild type. Blank lines part the entries; values can stand above or below the binder they belong to.
Key:
[1] = target: EGFR in mouse liver (epidermal growth factor receptor, hepatocyte surface receptor) (mouse) (UniProt Q01279); experiment: summary of the co-immunoprecipitation from livers after intragastric administration
[2] = target: EGFR in mouse liver (epidermal growth factor receptor, hepatocyte surface receptor) (mouse) (UniProt Q01279); experiment: co-immunoprecipitation with mLeg1 antibody from livers of mLeg1 knockout mice at 0, 10, 20, 40, 60 min after intragastric mLeg1
[3] = target: EGFR in mouse liver (epidermal growth factor receptor, hepatocyte surface receptor) (mouse) (UniProt Q01279); experiment: co-immunoprecipitation: liver cells incubated with partially purified mLeg1 at 4°C with crosslinker DSP, pulled down with mLeg1 antibody, Western blot for EGFR
[4] = target: EGFR in mouse liver (epidermal growth factor receptor, hepatocyte surface receptor) (mouse) (UniProt Q01279); experiment: co-immunoprecipitation with mLeg1 antibody from livers of mLeg1 knockout mice two hours after intragastric mLeg1-Re

binding [1]: binds | binding [2]: binds | binding [3]: binds
B1: mLeg1 protein (wild-type mouse Leg1, partially purified from the salivary glands of wild-type mice by sepharose 6B column chromatography) (ligand)
chain: VSDSSDPYPPLWEDSPEQLSDYMMEDGNYIINPWVYTDRMGMYRILLEETAMYFAKYGPENEQNLLWGLPLQFGWQYQSGRLADPTGMTDCGNELNESLCVSVDSWWADINYYLSVIPFLAAVDSGITGISPNQITILPPPKDQMRFCYNVSDCQSAVPGTMNRWRDFFQYMQLNSSDFDGLLNYLWEAHASSLDYPTSAFGDRYNFYSEKEANFEENWAIAVNYLAAARLPTTQNRTYSFQRGLPPRVLVDTDIAPFIPDFTPLQNEVLVSLKLLGDTDRNSGSLSLTLWENLMSTKLARTLFLKAFEEFLATSS

binding [4]: binds
B2: recombinant mLeg1-Re protein (mLeg1 expressed in the Escherichia coli expression system, modification-defective) (ligand, not shown: small tags and cut ends)
chain: EVSDSSDPYPPLWEDSPEQLSDYMMEDGNYIINPWVYTDRMGMYRILLEETAMYFAKYGPENEQNLLWGLPLQFGWQYQSGRLADPTGMTDCGNELNESLCVSVDSWWADINYYLSVIPFLAAVDSGITGISPNQITILPPPKDQMRFCYNVSDCQSAVPGTMNRWRDFFQYMQLNSSDFDGLLNYLWEAHASSLDYPTSAFGDRYNFYSEKEANFEENWAIAVNYLAAARLPTTQNRTYSFQRGLPPRVLVDTDIAPFIPDFTPLQNEVLVSLKLLGDTDRNSGSLSLTLWENLMSTKLARTLFLKAFEEFLATSS
